Results: patent EP4670742A1, “ANTI-CD79B ANTIBODY DRUG CONJUGATES” (priority 2024, dated 2025)
Results are given in words; binding and its absence hold for the method and conditions named. Some entries that bind do so weakly or less than the wild type.

The chains behind the UniProt entries cited, without tags or fusion partners. Residues count along the entry.
UniProt P40259, residues 29-159: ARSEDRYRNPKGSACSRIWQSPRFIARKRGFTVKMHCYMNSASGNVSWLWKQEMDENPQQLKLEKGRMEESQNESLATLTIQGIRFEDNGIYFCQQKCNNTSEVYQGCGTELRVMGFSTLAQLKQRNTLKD

Target: human CD79b (human) (UniProt P40259)
Experiment: screening of antibody candidates; assay not named

B1: Ab1 (antibody, human IgG1, kappa, V domains shown)
VH: EVQLVESGGGLVQPGGSLRLPCAASGFTFYNYWITWIRQAPGKGLEWVANINQAGSEKSYLDAVKGRFTISRDNAKNSVYLQMNSLRVEDTAVYYCAGGFRAFDIWGQGTMVTVSS
VL: DFVLTQSPLSLSVTPGEPASISCRSSQSLLHSSGESYLDWFLQRPGQSPQVLIYLGSHRASGAPDRFSGSGSGTDFTLKISRVEAEDVGVYYCMQALQTPLTFGGGTRVEIKR
notes: Unconjugated IgG1 kappa antibody expressed in CHO cells; also called anti-CD79b antibody Ab1; CD79b monoclonal antibody candidate
- binding: binds
